# Results are given in words; binding and its absence hold for the method and conditions named. Binding seen in cells or lysates may run through a third protein. Some binding calls cover weakened binding; strength is not graded here. For part of these data: Sequences can lack the tags named with a protein.
# B1: endogenous ADIPOR2 (adiponectin receptor 2) (protein, UniProt Q86V24 1-386)
# chain: MNEPTENRLGCSRTPEPDIRLRKGHQLDGTRRGDNDSHQGDLEPILEASVLSSHHKKSSEEHEYSDEAPQEDEGFMGMSPLLQAHHAMEKMEEFVCKVWEGRWRVIPHDVLPDWLKDNDFLLHGHRPPMPSFRACFKSIFRIHTETGNIWTHLLGCVFFLCLGIFYMFRPNISFVAPLQEKVVFGLFFLGAILCLSFSWLFHTVYCHSEGVSRLFSKLDYSGIALLIMGSFVPWLYYSFYCNPQPCFIYLIVICVLGIAAIIVSQWDMFATPQYRGVRAGVFLGLGLSGIIPTLHYVISEGFLKAATIGQIGWLMLMASLYITGAALYAARIPERFFPGKCDIWFHSHQLFHIFVVAGAFVHFHGVSNLQEFRFMIGGGCSEEDAL
# How the values were obtained:
# [1] = molecular target: T1, endogenous RNF145 (human (endogenous in HEK‐293T)) (UniProt Q96MT1); assay: condition: only cells treated with PA (400 μM, 3 h); co-IP; immunoprecipitation of endogenous RNF145 from HEK‐293T cells depleted of UBE2G2 (gUBE2G2), treated for 3 h with 400 μM PA; immunoblot for ADIPOR2
# T1 sequence: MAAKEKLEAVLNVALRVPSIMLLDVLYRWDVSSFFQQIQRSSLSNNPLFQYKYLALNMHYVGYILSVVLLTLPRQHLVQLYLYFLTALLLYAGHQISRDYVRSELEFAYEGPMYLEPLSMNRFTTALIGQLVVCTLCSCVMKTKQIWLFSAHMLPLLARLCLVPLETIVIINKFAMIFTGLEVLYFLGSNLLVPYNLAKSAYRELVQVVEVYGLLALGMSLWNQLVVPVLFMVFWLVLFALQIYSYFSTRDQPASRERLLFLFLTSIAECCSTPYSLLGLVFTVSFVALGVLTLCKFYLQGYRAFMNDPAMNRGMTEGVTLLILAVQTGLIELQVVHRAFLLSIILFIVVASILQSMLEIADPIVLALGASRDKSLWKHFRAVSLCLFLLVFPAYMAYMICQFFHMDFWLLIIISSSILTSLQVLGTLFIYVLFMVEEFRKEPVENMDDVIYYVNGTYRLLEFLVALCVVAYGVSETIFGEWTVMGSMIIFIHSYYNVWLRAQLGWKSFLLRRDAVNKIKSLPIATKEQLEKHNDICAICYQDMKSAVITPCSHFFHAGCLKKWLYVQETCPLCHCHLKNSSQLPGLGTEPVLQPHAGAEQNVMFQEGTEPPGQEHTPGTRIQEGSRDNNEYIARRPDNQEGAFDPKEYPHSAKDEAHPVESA
# [2] = molecular target: T2, RNF145^(C552A, H554A)‐V5, catalytically inactive RING‐domain mutant (UniProt Q96MT1); assay: co-IP; anti‐V5 immunoprecipitation from HeLa ∆RNF145 cells complemented with V5‐tagged RNF145; cells treated with VCP inhibitor (NMS‐873, 10 μM, 90 min) before; lysis in 1% digitonin, 10 mM TRIS, 150 mM NaCl, pH 7.4; elution with V5 peptide; immunoblot
# T2 sequence: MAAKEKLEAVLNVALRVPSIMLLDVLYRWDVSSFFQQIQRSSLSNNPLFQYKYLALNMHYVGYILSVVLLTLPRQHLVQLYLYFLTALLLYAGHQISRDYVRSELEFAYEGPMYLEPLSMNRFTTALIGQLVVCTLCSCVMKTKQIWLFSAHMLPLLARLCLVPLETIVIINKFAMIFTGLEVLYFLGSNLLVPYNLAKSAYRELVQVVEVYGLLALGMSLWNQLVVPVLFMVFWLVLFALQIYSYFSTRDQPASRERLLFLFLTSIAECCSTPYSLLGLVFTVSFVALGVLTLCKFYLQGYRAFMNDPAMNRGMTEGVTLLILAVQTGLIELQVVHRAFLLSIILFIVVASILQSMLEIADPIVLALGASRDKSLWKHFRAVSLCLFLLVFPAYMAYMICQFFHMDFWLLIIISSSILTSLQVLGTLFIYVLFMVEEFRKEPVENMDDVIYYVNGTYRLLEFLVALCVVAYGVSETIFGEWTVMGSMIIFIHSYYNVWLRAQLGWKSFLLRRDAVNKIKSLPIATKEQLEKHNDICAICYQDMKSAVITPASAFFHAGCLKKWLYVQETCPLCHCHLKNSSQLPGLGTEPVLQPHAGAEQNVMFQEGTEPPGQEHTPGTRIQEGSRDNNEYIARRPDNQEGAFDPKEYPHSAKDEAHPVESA
# [3] = molecular target: T1, endogenous RNF145 (human (endogenous in HEK‐293T)); assay: co-IP; immunoprecipitation of endogenous RNF145 from HEK‐293T cells depleted of UBE2G2 (gUBE2G2), treated for 3 h with BSA (control) or 400 μM OA; immunoblot for ADIPOR2
binder,measurement,setting,value
B1,binding,[1],no binding
same,binding,[2],binds
same,binding,[3],binds

# Source: article PMC9531299
